Results are given in words; binding and its absence hold for the method and conditions named. Some entries that bind do so weakly or less than the wild type.
Target: chimeric mouse AXL ECD with human Ig1 domain, His-tagged (human; mouse) (UniProt Q00993)
Test: BLI (Octet), His-tagged chimeric protein captured on Anti-Penta-HIS sensors

B1: 22995 (antibody, human IgG1, kappa, L234A L235A, V domains shown)
VH: EVQLVESGGSLVQPGGSLRLSCAASGFTFSSSAMSWVRQAPGKGLEWVSTISGSDSSTYDADSVKGRSTISRDNSKNTLYLQMNSLRADDTAVYYCAKKGAYCSGTICYDPFDYWGQGTLVTVSS
VL: DIVLTQSPVLAVSLGQRATISCRASQSVSISSINLMHWYQQKPGQQPKLLIYRASNLASGIPARFSGSGSGTDFTLTIDPVQADDIAAYYCQQSRESPLTFGGGTKVEIKR
binding: binds
